Results are given in words; binding and its absence hold for the method and conditions named. In cells and extracts the contact can be indirect. Here binding means that the protein was enriched with, or labelled near, the bait; the list need not be complete. Sequences can lack the tags named with a protein.
Target: T1, RBM39-Flag (RNA-binding Motif Protein 39, Flag-tagged) (human (cDNA from Jurkat cell mRNA)) (UniProt Q14498)
T1 sequence: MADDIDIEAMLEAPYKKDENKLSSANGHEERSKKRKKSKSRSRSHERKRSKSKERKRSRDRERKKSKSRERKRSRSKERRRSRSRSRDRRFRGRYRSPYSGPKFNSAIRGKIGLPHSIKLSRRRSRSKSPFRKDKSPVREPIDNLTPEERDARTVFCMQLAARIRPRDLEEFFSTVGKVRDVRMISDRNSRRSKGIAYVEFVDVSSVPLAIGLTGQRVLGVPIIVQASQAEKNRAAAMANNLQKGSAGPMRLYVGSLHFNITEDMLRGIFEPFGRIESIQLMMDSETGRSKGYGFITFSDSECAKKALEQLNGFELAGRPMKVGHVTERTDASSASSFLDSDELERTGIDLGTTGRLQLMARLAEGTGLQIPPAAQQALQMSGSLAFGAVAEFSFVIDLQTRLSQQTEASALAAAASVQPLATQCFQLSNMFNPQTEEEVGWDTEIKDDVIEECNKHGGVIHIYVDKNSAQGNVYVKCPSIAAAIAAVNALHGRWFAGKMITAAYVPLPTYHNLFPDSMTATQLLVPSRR
Test: affinity purification with mass spectrometry; HEK293T transfected with Flag-tagged RBM39 (with Tat plasmid; Vector-Flag as control), 48 h; anti-Flag beads, SDS-PAGE, in-gel digestion, LC-MS/MS

Amino acid sequences for entries named in this document (tags omitted).
UniProt P17844: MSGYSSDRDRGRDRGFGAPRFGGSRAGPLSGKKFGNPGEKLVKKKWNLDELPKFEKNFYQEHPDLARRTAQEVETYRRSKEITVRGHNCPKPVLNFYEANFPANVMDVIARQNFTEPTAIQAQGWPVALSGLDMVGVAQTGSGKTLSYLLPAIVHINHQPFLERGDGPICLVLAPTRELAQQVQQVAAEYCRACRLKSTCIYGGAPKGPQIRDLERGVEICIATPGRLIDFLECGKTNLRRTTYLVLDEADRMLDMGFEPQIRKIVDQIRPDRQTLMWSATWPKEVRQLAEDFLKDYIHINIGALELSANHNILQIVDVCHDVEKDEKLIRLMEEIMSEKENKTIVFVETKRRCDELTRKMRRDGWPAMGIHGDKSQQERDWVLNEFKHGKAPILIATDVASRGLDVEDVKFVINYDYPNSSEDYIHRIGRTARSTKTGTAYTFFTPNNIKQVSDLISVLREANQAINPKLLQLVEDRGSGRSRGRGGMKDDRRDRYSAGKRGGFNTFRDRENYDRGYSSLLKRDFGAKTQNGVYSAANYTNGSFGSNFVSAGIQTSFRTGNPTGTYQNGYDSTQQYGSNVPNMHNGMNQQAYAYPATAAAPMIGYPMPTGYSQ
UniProt Q9NR30: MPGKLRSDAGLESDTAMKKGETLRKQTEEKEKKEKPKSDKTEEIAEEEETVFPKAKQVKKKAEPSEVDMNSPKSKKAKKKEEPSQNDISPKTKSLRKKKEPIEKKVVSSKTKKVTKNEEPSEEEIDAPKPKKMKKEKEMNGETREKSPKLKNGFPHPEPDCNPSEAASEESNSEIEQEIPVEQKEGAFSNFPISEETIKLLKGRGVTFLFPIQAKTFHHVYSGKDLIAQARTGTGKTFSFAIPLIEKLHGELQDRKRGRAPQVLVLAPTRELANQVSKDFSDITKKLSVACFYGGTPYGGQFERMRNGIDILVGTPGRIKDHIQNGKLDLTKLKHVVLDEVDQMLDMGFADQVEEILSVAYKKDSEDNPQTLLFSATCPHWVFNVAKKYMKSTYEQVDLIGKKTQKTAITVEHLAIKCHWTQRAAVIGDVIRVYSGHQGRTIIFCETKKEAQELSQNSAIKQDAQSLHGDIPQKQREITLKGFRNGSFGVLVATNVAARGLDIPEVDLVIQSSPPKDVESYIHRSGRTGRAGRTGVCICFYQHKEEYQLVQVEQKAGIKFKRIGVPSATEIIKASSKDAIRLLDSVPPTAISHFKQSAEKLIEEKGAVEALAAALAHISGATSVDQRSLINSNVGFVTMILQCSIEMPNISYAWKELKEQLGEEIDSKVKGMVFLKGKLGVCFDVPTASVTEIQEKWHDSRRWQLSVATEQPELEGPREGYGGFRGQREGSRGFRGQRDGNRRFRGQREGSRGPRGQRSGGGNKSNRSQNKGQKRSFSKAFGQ

binding | Substance
binds | DDX5 (endogenous) (from UniProt P17844 1-614)
binds | DDX21 (endogenous) (from UniProt Q9NR30 1-783)
